These are yes or no findings as the source states them, for the method shown. Binding seen in cells or lysates may run through a third protein. Some entries that bind do so weakly or less than the wild type.
How the values were obtained:
[1] = target: Cyclin-dependent kinase 1 (human (endogenous in MCF7)) (UniProt P06493); assay: co-IP; anti-CDK1 immunoprecipitation from NP40 extracts (150 mM NaCl, 10 mM Tris-HCl pH 7.5, 1% NP40) of MCF7 cells treated with ammonium chloride (40 mM) or concanamycin A (50 nM) for 24 hours; immunoblot; normal mouse serum as control
Flag-CDK1 = Flag-CDK1 (UniProt P06493); assay: co-IP; anti-Flag immunoprecipitation from extracts of transfected HEK293T cells treated with etoposide and concanamycin A for 24 hours; immunoblot; normal mouse serum as control
[2] = target: Cyclin-dependent kinase 1 (human (endogenous in MCF7)) (UniProt P06493); assay: condition: only cells treated with 3-methyladenine (autophagosome formation blocked); co-IP; anti-CDK1 immunoprecipitation from NP40 extracts (5 mg of extract protein) of MCF7 cells treated with 3-methyladenine (10 mM) for 24 hours; immunoblot
[3] = target: Cyclin-dependent kinase 1 (human (endogenous in MCF7)) (UniProt P06493); assay: condition: only untreated cells (without ammonium chloride); co-IP; anti-CDK1 immunoprecipitation from NP40 extracts of untreated MCF7 cells; immunoblot

By UniProt entry, the sequences of proteins in these tests, tags left out.
UniProt Q9UBN7: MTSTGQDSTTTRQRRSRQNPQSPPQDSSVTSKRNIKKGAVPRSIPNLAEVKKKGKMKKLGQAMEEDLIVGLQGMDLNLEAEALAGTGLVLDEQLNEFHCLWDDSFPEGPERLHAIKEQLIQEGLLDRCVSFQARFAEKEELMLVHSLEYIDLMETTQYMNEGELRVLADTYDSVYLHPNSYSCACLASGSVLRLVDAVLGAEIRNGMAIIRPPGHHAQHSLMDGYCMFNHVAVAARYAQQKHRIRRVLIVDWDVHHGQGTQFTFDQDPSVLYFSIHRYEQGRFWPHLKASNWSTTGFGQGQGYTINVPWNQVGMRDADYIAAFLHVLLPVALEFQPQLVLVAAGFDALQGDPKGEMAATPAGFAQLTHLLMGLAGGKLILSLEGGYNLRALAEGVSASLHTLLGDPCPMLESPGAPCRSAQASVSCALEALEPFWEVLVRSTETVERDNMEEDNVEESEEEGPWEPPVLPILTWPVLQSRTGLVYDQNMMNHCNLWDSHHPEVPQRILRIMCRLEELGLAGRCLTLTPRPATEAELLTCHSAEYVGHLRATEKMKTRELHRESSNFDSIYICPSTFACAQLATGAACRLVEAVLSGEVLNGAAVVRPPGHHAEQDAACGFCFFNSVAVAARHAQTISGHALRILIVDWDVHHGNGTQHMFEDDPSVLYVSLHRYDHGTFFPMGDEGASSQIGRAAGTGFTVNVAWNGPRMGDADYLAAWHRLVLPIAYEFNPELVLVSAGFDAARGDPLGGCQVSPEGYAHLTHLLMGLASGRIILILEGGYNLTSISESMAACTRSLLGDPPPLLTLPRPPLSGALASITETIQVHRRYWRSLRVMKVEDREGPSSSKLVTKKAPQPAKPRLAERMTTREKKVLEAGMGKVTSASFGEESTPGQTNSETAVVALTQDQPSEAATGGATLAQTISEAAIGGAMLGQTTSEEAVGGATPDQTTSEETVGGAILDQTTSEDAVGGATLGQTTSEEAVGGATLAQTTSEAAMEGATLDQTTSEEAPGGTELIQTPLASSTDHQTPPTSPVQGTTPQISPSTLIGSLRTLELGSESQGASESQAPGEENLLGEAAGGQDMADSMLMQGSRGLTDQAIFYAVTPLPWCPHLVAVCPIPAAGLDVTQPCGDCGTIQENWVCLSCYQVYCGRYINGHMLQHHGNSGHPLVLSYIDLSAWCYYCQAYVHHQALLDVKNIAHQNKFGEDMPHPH

Substance	binding [1]	binding (Flag-CDK1)	binding [2]	binding [3]
Histone deacetylase 6 (from UniProt Q9UBN7 1-1215)	binds	binds	no binding	–
p62/SQSTM1 (from UniProt Q13501 1-440)	binds	binds	no binding	no binding

— article PMC5577189
